Binding data for five substances are collected here from PMC4729438.

Sequences of proteins named here, by UniProt entry; tags and fusion partners are left off. Residues count along the entry.
UniProt Q13242: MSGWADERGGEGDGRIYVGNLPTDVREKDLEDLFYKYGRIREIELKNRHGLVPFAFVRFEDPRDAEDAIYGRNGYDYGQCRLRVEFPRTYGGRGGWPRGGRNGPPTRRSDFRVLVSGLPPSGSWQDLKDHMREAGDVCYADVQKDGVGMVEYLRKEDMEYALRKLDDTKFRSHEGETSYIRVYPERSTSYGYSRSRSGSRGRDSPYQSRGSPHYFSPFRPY
UniProt Q07021, residues 74-282: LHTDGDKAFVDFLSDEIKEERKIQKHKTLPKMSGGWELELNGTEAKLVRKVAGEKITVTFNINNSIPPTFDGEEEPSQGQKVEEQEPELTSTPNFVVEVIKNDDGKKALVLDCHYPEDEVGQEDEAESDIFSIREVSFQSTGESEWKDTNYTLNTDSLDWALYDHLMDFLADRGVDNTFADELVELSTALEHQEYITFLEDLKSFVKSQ
UniProt P35637: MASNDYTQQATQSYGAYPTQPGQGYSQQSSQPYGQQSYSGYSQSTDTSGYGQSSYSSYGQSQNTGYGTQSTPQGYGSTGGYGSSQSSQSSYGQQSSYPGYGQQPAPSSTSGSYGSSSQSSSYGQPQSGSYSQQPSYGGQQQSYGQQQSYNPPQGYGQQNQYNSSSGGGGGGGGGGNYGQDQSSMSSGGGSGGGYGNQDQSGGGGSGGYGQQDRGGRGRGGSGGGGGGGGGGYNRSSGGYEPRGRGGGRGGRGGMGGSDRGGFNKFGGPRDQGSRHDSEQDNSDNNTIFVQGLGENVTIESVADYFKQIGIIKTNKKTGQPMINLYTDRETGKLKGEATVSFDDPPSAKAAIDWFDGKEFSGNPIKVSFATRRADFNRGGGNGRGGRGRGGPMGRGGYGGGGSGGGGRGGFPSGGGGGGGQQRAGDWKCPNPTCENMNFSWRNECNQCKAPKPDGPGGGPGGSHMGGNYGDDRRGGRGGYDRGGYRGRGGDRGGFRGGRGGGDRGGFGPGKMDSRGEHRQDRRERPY

Test [1] deals with DUX4-V5 (full length) (human) (UniProt Q9UBX2). Description: co-IP; HEK293 cells transfected with V5-tagged DUX4 constructs, alone or with Myc-DDK-tagged partners; lysate in 137 mM NaCl, 10 mM Tris-HCl pH 7.4, 1% NP40; IP with V5- or Myc-antibody agarose 16-20 h at 4 °C; western blot.
In test [2] the target is short DUX4-V5 (DUX4 limited to the homeodomains) (human) (UniProt Q9UBX2). The description is as above.
Test [3] has as its target T1, Myc-DDK-tagged-human RNA-binding motif protein 3 (pCMV6.RBM3) (human) (UniProt P98179).
T1 sequence: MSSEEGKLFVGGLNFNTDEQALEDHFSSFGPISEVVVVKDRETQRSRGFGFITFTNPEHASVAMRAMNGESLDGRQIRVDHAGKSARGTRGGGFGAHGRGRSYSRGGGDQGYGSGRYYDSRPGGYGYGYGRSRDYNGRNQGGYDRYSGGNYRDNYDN
The description is as above.

Test [4] has as its target Myc-DDK-tagged-human serine/arginine-rich splicing factor 9 (pCMV6.SRSF9) (human) (UniProt Q13242). The description is as above.
Test [5] deals with T2, Myc-DKK-tagged-human LIM and cysteine-rich domains 1 (pCMV6.LMCD1) (human) (UniProt Q9NZU5).
T2 sequence: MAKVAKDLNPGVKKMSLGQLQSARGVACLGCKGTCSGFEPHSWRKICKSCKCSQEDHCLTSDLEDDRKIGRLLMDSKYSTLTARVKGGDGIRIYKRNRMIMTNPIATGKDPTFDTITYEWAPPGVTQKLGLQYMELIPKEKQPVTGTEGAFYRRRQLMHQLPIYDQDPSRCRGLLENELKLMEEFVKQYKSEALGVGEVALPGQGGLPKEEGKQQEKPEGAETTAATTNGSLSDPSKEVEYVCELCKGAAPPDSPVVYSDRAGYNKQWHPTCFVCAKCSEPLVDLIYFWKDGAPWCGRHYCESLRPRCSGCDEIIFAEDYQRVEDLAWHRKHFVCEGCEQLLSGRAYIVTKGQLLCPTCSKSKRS
Described as above.

The target in test [6] is DUX4 expressed in transfected human myoblasts (pCIneo-DUX4 or a vector with the endogenous promoter) (human) (UniProt Q9UBX2). Put plainly: proximity ligation; in situ PLA (Duolink) on fixed human myoblasts, transfected with DUX4 or DUX4c vectors (LHCN-M2) or untransfected healthy or FSHD myoblasts; mouse and rabbit primary antibodies to the two proteins.
The target of test [7] is DUX4c expressed in transfected human myoblasts (pCIneo-DUX4c or pENTR-DUX4c) (human) (UniProt Q6RFH8). The description is as above.
Test [8] deals with DUX4, endogenous in FSHD myoblasts (human (endogenous in FSHD myoblasts)) (UniProt Q9UBX2). The test is described as above.
Another test addresses GST-desmin (human) (UniProt P17661). Description: pull-down; GST-desmin or GST on GSH-Sepharose 4B incubated with 35S-labeled in vitro transcription/translation products overnight at 4 °C; SDS-PAGE, autoradiography; only the target purified.

No constants are given. Whether binding was seen depends on the method and setting. Binding seen in cells or lysates may run through a third protein. Some binding calls cover weakened binding; strength is not graded here. For some of these results: Where a sequence is shown, tags or fusion partners need not be part of it.

As to “C1QBP, endogenous in human cells (from UniProt Q07021 74-282)”, the binding entry in test [1] and in test [2] was “binds” in each case.
For the substance “DUX4-V5 (full length) (from UniProt Q9UBX2 1-424)”, the binding entry in test [3], in test [4] and in test [5] was “binds” each time.
Turning to “FUS, endogenous in human muscle cells (from UniProt P35637 1-526)”, the binding entry in test [6] and in [7] was “binds” in each case.
In the case of “desmin, endogenous in human muscle cells (from UniProt P17661 1-470)”, the binding result in test [6] and in [8] was “binds” in each case.
For the substance “radiolabeled DUX4 (in vitro transcription/translation) (from UniProt Q9UBX2 1-424)”, the binding entry in the test with GST-desmin (human) is on record as “binds”.
